Values joined by “and” are separate entries in the source; they are usually repeats but may differ in a detail not shown here. Equal values may be shown once. The whole screen tested about 580,000 compounds, of which about 6,100 (1.1%) were called active. The inconclusive results got no clear call from the source; some entries with a clear call stand among them for comparison. Calls come from the whole dose curve; as a rule, active = well fitted inhibition curve with a large enough effect; inconclusive = small, poorly fitted or top-dose-only effect, or another doubt; inactive = no such curve, though single readings can be large or run the other way. Potencies of inconclusive entries are doubtful fits and often do not repeat.
What follows are compounds tested against Polyunsaturated fatty acid lipoxygenase ALOX12 (Homo sapiens) (UniProt P18054) (assay: Primary qHTS assay for inhibitors of human arachidonate 12S-lipoxygenase (ALOX12): Round 2). Settings: purified 12hLO, xylenol orange hydroperoxide absorbance; activity change, negative = inhibition: at 108 µM (top of the series) unless noted.
Method in brief: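 Purified human 12hLO at 150 nM in 25 mM Hepes, 0.01% Triton X-100, pH 7.0, preincubated 15 min at room temperature with compound. Reaction started with 40 uM arachidonic acid, 30 min at room temperature. Hydroperoxide measured by Fe-xylenol orange, 573/405 nm absorbance ratio.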
% is set by controls: 0 for no effect and ±100 for the full control effect; potency is the fitted concentration of half-maximal effect.

By UniProt entry, the sequences of proteins in these tests, tags left out. Where a name states a change or a piece, a line headed by the entry shows the natural chain unless it says otherwise.
UniProt P18054: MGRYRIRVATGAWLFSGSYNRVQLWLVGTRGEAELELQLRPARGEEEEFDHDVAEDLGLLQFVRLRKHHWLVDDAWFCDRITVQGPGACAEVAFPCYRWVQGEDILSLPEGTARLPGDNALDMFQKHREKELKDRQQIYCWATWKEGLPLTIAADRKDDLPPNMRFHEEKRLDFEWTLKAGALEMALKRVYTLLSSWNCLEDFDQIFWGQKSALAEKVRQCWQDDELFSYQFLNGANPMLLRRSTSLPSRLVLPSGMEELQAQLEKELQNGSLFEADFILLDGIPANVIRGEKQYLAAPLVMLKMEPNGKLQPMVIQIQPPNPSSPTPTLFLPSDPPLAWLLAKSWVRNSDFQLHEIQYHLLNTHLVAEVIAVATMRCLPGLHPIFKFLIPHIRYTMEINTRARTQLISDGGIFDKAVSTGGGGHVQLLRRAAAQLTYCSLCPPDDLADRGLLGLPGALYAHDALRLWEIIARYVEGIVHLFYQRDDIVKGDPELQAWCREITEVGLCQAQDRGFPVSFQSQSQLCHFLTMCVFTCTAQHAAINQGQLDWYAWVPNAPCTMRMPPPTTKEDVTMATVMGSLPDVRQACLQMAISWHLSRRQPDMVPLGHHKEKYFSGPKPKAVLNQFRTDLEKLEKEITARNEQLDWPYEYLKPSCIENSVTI

| SMILES | Potency | activity change, negative = inhibition |
| --- | --- | --- |
| CCOc1ccc(C(=O)NCCn2cc(SCC(=O)Nc3ccccc3)c3ccccc32)cc1 | inconclusive: 39.8 µM [inhibitor, partial curve] |  |
| CCN(C(=O)c1cccc(C(=O)OC)c1)C12CC3CC(CC(C3)C1)C2 | inconclusive: 39.8 µM [inhibitor, partial curve, poor fit] |  |
| O=C(O)c1cc(-c2ccc(/C=C3/SC(=S)N(Cc4ccccc4)C3=O)o2)ccc1Cl | active: 12.6 µM |  |
| CCCCN1C(=O)C(=O)N(CC(=O)c2ccc3c(c2)OCO3)C1=O | inconclusive: 89.1 µM [inhibitor, partial curve, poor fit] |  |
| O=S1(=O)C=C(Sc2nn(-c3ccccc3)c(=S)s2)c2ccccc21 | inconclusive: 3.16 µM [inhibitor, full curve, poor fit] |  |
| CCCCNC(=S)Nc1ccc(C)c(Cl)c1 | inconclusive: 44.7 µM [inhibitor, partial curve, poor fit] |  |
| CCOc1ccc(N2CC(C(=O)OCC(=O)c3ccc(OC)cc3)CC2=O)cc1 (configuration not stated) | inactive |  |
| C#CCOCCOCCOCCNc1nc(N2CCN(C(=O)Cn3cc(CCCCN)nn3)CC2)nc(N2CCN(C(=O)Cn3cc(CC(C)O)nn3)CC2)n1 (configuration not stated) | inconclusive: 11.2 µM [inhibitor, full curve] |  |
| COc1ccccc1NC(=O)CCS(=O)(=O)c1cc2c3c(c1)CCN3C(=O)CC2 | inconclusive: 50.1 µM [inhibitor, partial curve, poor fit] |  |
| Cc1ccoc1C(=O)NCCNc1ccc(Cl)cc1[N+](=O)[O-] | inconclusive: 44.7 µM [inhibitor, partial curve, poor fit] |  |
| Cc1cc(C(=O)N2CCc3nnc([C@@H]4C[C@@H](O)CN4C)n3CC2)n(C)n1 | inconclusive: 3.55 µM [inhibitor, full curve, poor fit] |  |
| CSc1nncn1/N=C/c1ccc2c(c1)OCO2 | inconclusive: 0.447 µM [inhibitor, full curve, poor fit] |  |
| O=S(=O)(NC1CCCCCCC1)c1cccs1 | inconclusive: 56.2 µM [inhibitor, partial curve, poor fit] |  |
| COc1ccccc1N1CCC(N2CCN(CC(C)(C)C)C(CCO)C2)CC1 (configuration not stated) | inconclusive: 70.8 µM [inhibitor, single point] |  |
| CCOC(=O)c1c(O)c(O)c(C(=O)OCC)n1-c1ccccc1 | inconclusive: 5.01 µM [inhibitor, full curve, poor fit] |  |
| O=C(NCc1cccs1)c1cccc(Nc2nc3ccc(Br)cc3[nH]2)c1 | inactive |  |
| O=C(C1CCCC1)N1CC2(CCCN(CC3CC3)C2)Cc2ccccc21 (configuration not stated) | inconclusive: 79.4 µM [inhibitor, partial curve, poor fit] |  |
| COc1ccc(C2Nc3ccccc3C(=O)N2Cc2ccco2)cc1COc1ccccc1F (configuration not stated) | inconclusive: 1.41 µM [inhibitor, partial curve, poor fit] |  |
| Cc1cc(C)cc(NC(=O)c2csc3c2CCCCC3)c1 | inconclusive: 44.7 µM [inhibitor, partial curve, poor fit] |  |

Exported as labelled records: two of the compounds above.
CCCCN1C(=O)C(=O)N(CC(=O)c2ccc3c(c2)OCO3)C1=O
  Potency: inconclusive: 89.1 µM [inhibitor, partial curve, poor fit]
Cc1ccoc1C(=O)NCCNc1ccc(Cl)cc1[N+](=O)[O-]
  Potency: inconclusive: 44.7 µM [inhibitor, partial curve, poor fit]

The list goes on.

| SMILES | Potency | activity change, negative = inhibition |
| --- | --- | --- |
| COc1cccc(NC(=O)[C@@H]2C[C@@H](c3cccc(C(F)(F)F)c3)N(Cc3cnn(C)c3)C2)c1 | inactive |  |
| COc1ccc2[nH]c3c(c2c1)CCNC31CCN(C(=O)c2nccc3ccccc23)CC1 | inconclusive: 3.55 µM [inhibitor, full curve] |  |
| CC[C@@H]1C=C(C)C[C@H](C)C[C@H](OC)[C@H]2O[C@@](O)(C(=O)C(=O)N3CCCC[C@@H]3C(=O)O[C@H](C(C)=C[C@@H]3CC[C@H](Cl)[C@H](OC)C3)[C@H](C)[C@@H](O)CC1=O)[C@H](C)C[C@H]2OC |  | inconclusive: -44% [inhibitor] [at 57.4 µM] |
| O=C(CCCCCNC(=O)c1ccccc1)N/N=C/c1ccco1 | inactive |  |
| Cc1ccc(N2C(=O)[C@@H]3[C@H](C2=O)[C@H]2C=CC=NN2[C@@H]3C(=O)Nc2ccc(Cl)cc2)cc1 | active: 10 µM |  |
| N#Cc1cccc(C(=O)NCCCc2nc3ccccc3[nH]2)c1 | inconclusive: 0.631 µM [inhibitor, full curve, poor fit] |  |
| COc1ccc(-c2nnc([C@H]3CCN(C(=O)c4ccc(OC)c(OC)c4)C3)o2)cc1 | inconclusive: 4.47 µM [inhibitor, single point] |  |
| O=C(NCc1ccncc1)[C@@H]1CCCN1C(=O)[C@H]1CCCN1C(=O)c1cccc2ccccc12 | inconclusive: 56.2 µM [inhibitor, partial curve, poor fit] |  |
| CCOC(=O)c1sc(NC(=S)NC(=O)c2cccc(OC)c2)nc1C | inconclusive: 8.91 µM [inhibitor, partial curve, poor fit] |  |
| Cc1ccc(C(=O)/C=C/c2ccc(-c3ccc(C)cc3)o2)cc1 | inconclusive: 15.8 µM [inhibitor, partial curve, poor fit] |  |
| O[C@@H]1C[C@@H](c2nc(-c3ccc4c(c3)OCO4)no2)N(CC2CCCCC2)C1 | inconclusive: 50.1 µM [inhibitor, partial curve] |  |
| Cc1ccc(N(C(C)C(=O)N2CCCC2)S(C)(=O)=O)cc1 (configuration not stated) | inconclusive: 89.1 µM [inhibitor, single point] |  |
| COc1ccc(Cn2c(C3CCN(C(=O)Cc4ccccc4Cl)CC3)n[nH]c2=O)cc1 | inconclusive: 14.1 µM [inhibitor, full curve, poor fit] |  |
| COc1ccc(/C=C/CN2CCN(Cc3cccc(OC)c3)C(CCO)C2)cc1 (configuration not stated) | inactive |  |
| CC(NC(=O)c1nccnc1N)c1ccccc1Br (configuration not stated) | inactive |  |
| CCc1nnc(NC(=O)c2cc(-c3ccco3)nc3ccccc23)s1 | inactive and inconclusive: 20 µM [inhibitor, partial curve] |  |
| O=C(COC(=O)c1cccc(C(=O)OCC(=O)NCc2ccc(F)cc2)n1)NCc1ccc(F)cc1 | inconclusive: 1.58 µM [inhibitor, full curve, poor fit] |  |
| COc1ccc(C2/C(=C(/O)c3ccc4c(c3)CC(C)O4)C(=O)C(=O)N2CCCN2CCOCC2)cc1 (configuration not stated) | inconclusive: 89.1 µM [inhibitor, partial curve, poor fit] |  |

Source: PubChem BioAssay AID1671190 (National Center for Advancing Translational Sciences (NCATS), 2021)
